Experimental data as given in patent US4810779A (Enichem Elastomeri S.p.A., priority 1985, dated 1989).
Strings that start with PEPTIDE1 are HELM notation: dots part the residues, brackets hold end groups and non-standard residues.

Assay: general procedure: Fmoc solid-phase peptide synthesis
Settings: late stage modification step

Substance | step yield | step yield (from decapeptide (III)) [%]
PEPTIDE1{[Glp].L.W.P.R.P.H.V.P.P}$$$$V2.0 | 70% | –
PEPTIDE1{[Glp].L.W.P.R.P.Q.I.P.P}$$$$V2.0 | higher than 70% | 72.7
